Data as given in PubChem BioAssay AID1259254 (NCATS, 2017)

- Purpose: 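Genome-wide screen for genes that prevent DNA re-replication in cancer cells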 (primary screen)
- Cells: human HCT116 colorectal cancer cells
- Knock-down reagent: single siRNA against human genes
- Duration: 3 days
- Detection: 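Nuclei stained with Hoechst and imaged; cell-cycle phase assigned by DNA content; G2 share scaled per plate, non-targeting siRNA 0%, GMNN siRNA 100%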
- Direction: G2 robust z-score and G2 cells, % of GMNN control: higher = more G2 cells, more excess DNA replication
- Rule for the call: 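Active siRNAs have a G2 robust z of 5 or more median absolute deviations over the median, which in these data means about 38% or higher of GMNN control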
Here is one part, drawn at random, of about 59,000 deposited reagents. About 1,550 of all reagents (2.6%) count as active. 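G2 share is only a proxy for re-replication; each gene was hit by three separate siRNAs, and active genes were retested.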 The numbers tell different reagents against one gene apart. Further read-outs or replicates are left out here. Not stated in the record: the amount of reagent.

no.	gene symbol	reagent	G2 robust z-score	G2 cells, % of GMNN control	Outcome
1	SLC4A9 (GeneID 83697)	1	-0.831	-2.88	inactive
2	SLC4A9 (GeneID 83697)	2	3.29	26.1	inactive
3	SLC4A9 (GeneID 83697)	3	0.0981	3.66	inactive
4	ACCSL (GeneID 390110)	1	-0.967	-3.83	inactive
5	ACCSL (GeneID 390110)	2	-0.034	2.73	inactive
6	ACCSL (GeneID 390110)	3	-0.634	-1.49	inactive
7	CCDC102B (GeneID 79839)	1	-0.0161	2.85	inactive
8	CCDC102B (GeneID 79839)	2	-0.0523	2.6	inactive
9	CCDC102B (GeneID 79839)	3	3.15	25.1	inactive
10	GDI1 (GeneID 2664)	1	5.31	40.3	active
11	GDI1 (GeneID 2664)	2	9.89	72.5	active
12	GDI1 (GeneID 2664)	3	-0.153	1.89	inactive
13	MSL3 (GeneID 10943)	1	-0.502	-0.567	inactive
14	MSL3 (GeneID 10943)	2	-0.312	0.77	inactive
15	MSL3 (GeneID 10943)	3	1.3	12.1	inactive
16	RNFT1 (GeneID 51136)	1	6.46	48.4	active
17	RNFT1 (GeneID 51136)	2	0.372	5.58	inactive
18	RNFT1 (GeneID 51136)	3	-0.718	-2.09	inactive
19	VWCE (GeneID 220001)	1	0.451	6.14	inactive
20	VWCE (GeneID 220001)	2	-0.421	0.00197	inactive
21	VWCE (GeneID 220001)	3	-0.639	-1.53	inactive
22	HACD1 (GeneID 9200)	1	-0.638	-1.52	inactive
23	HACD1 (GeneID 9200)	2	-0.97	-3.85	inactive
24	HACD1 (GeneID 9200)	3	-0.871	-3.16	inactive

Laid out differently: entries from further up.
gene symbol,reagent,G2 robust z-score,"G2 cells, % of GMNN control",Outcome
HACD1 (GeneID 9200),1,-0.638,-1.52,inactive
HACD1 (GeneID 9200),2,-0.97,-3.85,inactive
HACD1 (GeneID 9200),3,-0.871,-3.16,inactive

The listing continues.
no.	gene symbol	reagent	G2 robust z-score	G2 cells, % of GMNN control	Outcome
25	IGFALS (GeneID 3483)	1	-0.259	1.14	inactive
26	IGFALS (GeneID 3483)	2	3.58	28.2	inactive
27	IGFALS (GeneID 3483)	3	-0.473	-0.359	inactive
28	MYADML2 (GeneID 255275)	1	3.38	26.8	inactive
29	MYADML2 (GeneID 255275)	2	0.947	9.63	inactive
30	MYADML2 (GeneID 255275)	3	-0.00915	2.9	inactive
31	RMI2 (GeneID 116028)	1	2.47	20.3	inactive
32	RMI2 (GeneID 116028)	2	-0.863	-3.1	inactive
33	RMI2 (GeneID 116028)	3	-0.123	2.1	inactive
34	FNDC7 (GeneID 163479)	1	-0.463	-0.293	inactive
35	FNDC7 (GeneID 163479)	2	-0.284	0.972	inactive
36	FNDC7 (GeneID 163479)	3	2.08	17.6	inactive
37	CD8A (GeneID 925)	1	-0.219	1.42	inactive
38	CD8A (GeneID 925)	2	-0.096	2.29	inactive
39	CD8A (GeneID 925)	3	-0.526	-0.733	inactive
40	HSP90AB1 (GeneID 3326)	1	-1.03	-4.27	inactive
41	HSP90AB1 (GeneID 3326)	2	-0.456	-0.239	inactive
42	HSP90AB1 (GeneID 3326)	3	-0.164	1.81	inactive
43	OR7E154P (GeneID 403296)	1	-0.439	-0.121	inactive
44	OR7E154P (GeneID 403296)	2	-0.444	-0.159	inactive
45	OR7E154P (GeneID 403296)	3	-0.339	0.579	inactive
46	ELF2 (GeneID 1998)	1	-0.769	-2.44	inactive
47	ELF2 (GeneID 1998)	2	-0.358	0.449	inactive
48	ELF2 (GeneID 1998)	3	-0.117	2.15	inactive
